The other results are listed elsewhere or left out.

Assay in all cases: glycan array binding signal (z-score within array); higher = stronger binding
Common to all, as to settings: glycan notation: IUPAC condensed, linker removed

The target of assay [1] is Gal(b1-4)GlcNAc(b1-2)Man(a1-6)[Man(a1-3)]Man(b1-4)GlcNAc(b1-4)GlcNAc. The method in brief: (§1)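 Glycan array binding is given as a within-array Z-score, which can be read as non-binding when negative. The arrays, 3228 of them, came from the Consortium for Functional Glycomics database and were retained only where the protein sequence was available. Z-scores were averaged across arrays of the same protein sequence at different concentrations or buffers and across linkers.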

Assay [2] deals with Gal(b1-4)GlcNAc(b1-2)[Gal(b1-4)GlcNAc(b1-4)]Man(a1-3)[Gal(b1-4)GlcNAc(b1-2)Man(a1-6)]Man(b1-4)GlcNAc(b1-4)GlcNAc. The procedure, abridged:
as §1

The target of assay [3] is Gal(b1-4)GlcNAc(b1-2)[Gal(b1-4)GlcNAc(b1-4)]Man(a1-3)[Gal(b1-4)GlcNAc(b1-2)[Gal(b1-4)GlcNAc(b1-6)]Man(a1-6)]Man(b1-4)GlcNAc(b1-4)GlcNAc. The procedure, abridged: as §1
The target in assay [4] is Gal(b1-4)GlcNAc(b1-2)[Gal(b1-4)GlcNAc(b1-4)]Man(a1-3)[GlcNAc(b1-4)][Gal(b1-4)GlcNAc(b1-2)Man(a1-6)]Man(b1-4)GlcNAc(b1-4)GlcNAc. The procedure, abridged:
as §1

Assay [5] concerns the target Gal(b1-4)GlcNAc(b1-2)[Gal(b1-4)GlcNAc(b1-4)]Man(a1-3)[GlcNAc(b1-4)][Gal(b1-4)GlcNAc(b1-2)[Gal(b1-4)GlcNAc(b1-6)]Man(a1-6)]Man(b1-4)GlcNAc(b1-4)GlcNAc. The method in brief:
as §1

Assay [6] addresses Gal(b1-4)GlcNAc(b1-2)[Gal(b1-4)GlcNAc(b1-6)]Man(a1-6)[Gal(b1-4)GlcNAc(b1-2)Man(a1-3)]Man(b1-4)GlcNAc(b1-4)GlcNAc. The procedure, abridged: as §1
The target of assay [7] is Gal(b1-4)GlcNAc(b1-2)[Gal(b1-4)GlcNAc(b1-6)]Man(a1-6)[Gal(b1-4)GlcNAc(b1-2)Man(a1-3)]Man(b1-4)GlcNAc(b1-4)[Fuc(a1-6)]GlcNAc. The method in brief: as §1
In assay [8] the target is Gal(b1-4)GlcNAc(b1-2)[Gal(b1-4)GlcNAc(b1-6)]Man(a1-6)[GlcNAc(b1-4)][Gal(b1-4)GlcNAc(b1-2)Man(a1-3)]Man(b1-4)GlcNAc(b1-4)GlcNAc. The method in brief:
as §1

Assay [9] concerns the target Gal(b1-4)GlcNAc(b1-2)[Gal(b1-4)GlcNAc(b1-6)]Man(a1-6)[GlcNAc(b1-4)][Gal(b1-4)GlcNAc(b1-2)[Gal(b1-4)GlcNAc(b1-4)]Man(a1-3)]Man(b1-4)GlcNAc(b1-4)[Fuc(a1-6)]GlcNAc. The method in brief:
as §1

The target in assay [10] is Gal(b1-4)GlcNAc(b1-3)Gal(b1-3)GalNAc. The procedure, abridged:
as §1

Assay [11] has as its target Gal(b1-4)GlcNAc(b1-3)Gal(b1-3)GlcNAc. The method in brief:
as §1

The target of assay [12] is Gal(b1-4)GlcNAc(b1-3)Gal(b1-4)Glc. The procedure, abridged:
as §1

Assay [13] deals with Gal(b1-4)GlcNAc(b1-3)Gal(b1-4)GlcNAc. The method in brief:
as §1

In assay [14] the target is Gal(b1-4)GlcNAc(b1-3)Gal(b1-4)GlcNAc(b1-2)Man(a1-3)[Gal(b1-4)GlcNAc(b1-3)Gal(b1-4)GlcNAc(b1-2)Man(a1-6)]Man(b1-4)GlcNAc(b1-4)GlcNAc. The procedure, abridged: as §1
The target of assay [15] is Gal(b1-4)GlcNAc(b1-3)Gal(b1-4)GlcNAc(b1-2)Man(a1-3)[Gal(b1-4)GlcNAc(b1-3)Gal(b1-4)GlcNAc(b1-2)Man(a1-6)]Man(b1-4)GlcNAc(b1-4)[Fuc(a1-6)]GlcNAc. The procedure, abridged: as §1
In assay [16] the target is Gal(b1-4)GlcNAc(b1-3)Gal(b1-4)GlcNAc(b1-2)[Gal(b1-4)GlcNAc(b1-3)Gal(b1-4)GlcNAc(b1-6)]Man(a1-6)[Gal(b1-4)GlcNAc(b1-3)Gal(b1-4)GlcNAc(b1-2)Man(a1-3)]Man(b1-4)GlcNAc(b1-4)GlcNAc. The method in brief:
as §1

Assay [17] concerns the target Gal(b1-4)GlcNAc(b1-3)Gal(b1-4)GlcNAc(b1-2)[Gal(b1-4)GlcNAc(b1-3)Gal(b1-4)GlcNAc(b1-6)]Man(a1-6)[Gal(b1-4)GlcNAc(b1-3)Gal(b1-4)GlcNAc(b1-2)Man(a1-3)]Man(b1-4)GlcNAc(b1-4)[Fuc(a1-6)]GlcNAc. The method in brief:
as §1

Assay [18] deals with Gal(b1-4)GlcNAc(b1-3)Gal(b1-4)GlcNAc(b1-3)Gal(b1-4)GlcNAc. The method in brief: as §1

B1: PX14343E-bfa-545-24-545 (Bacteroides fragilis) (protein)
chain: LDRYPQEELSDGSFWKTPDDANKVVSDLYGYLSTWDQDNDINSDNATMGIKWAAGNVSKGIYDPADQGWSGDYANVRQCNLILSKIDEIPDYPEADKTKALGQVYFFRAYIYFNLIRSFGDVPYIDKPLDLKDMEGITRMPRAEVYEKIMADFDKAIAALPTEWGASDYGRVTKGAAMAMKARAALYYGNWDTAATEAKNVMDLGLYELYDKDNTGKYAELFWEKADGCDEFILVTQFNYPDKTHYLMGWECFPTKGWGGMNPTQSLVDAFEDSEGAPISKSKIYDPTDPFKNRDPRLEVDILHDGEEMYGVTIKVAPLASSGSTGINQHNDATETGYYGQKWLDPSLDPLSDGWNMGKDWVHIRYAEVLLTYAEAKNELQGLDPEAFDAVNQVRRRVGMPELQNTDPSKPTYCATQDDLRQRIRNEWRVEFCLEGGKRMWDIRRWGIAKDVLNAPFEGLKYKIVDNPNDPDKKVDGGKMCILYQGDPIILSGSRYSDNNYLFPVPQSEIDLNPALTQNPGY
Consider B1, for which the “glycan array binding signal (z-score)” value in assay [1] is -0.298; in [2], -0.705; in [3] it was 1.24; in assay [4], -0.51; in assay [5], 0.756; in [6], 0.094. Besides, the “glycan array binding signal (z-score)” value was -0.246 in assay [7]; 0.201 in [8]; 1.15 in assay [9]; -0.108 in assay [10]; -0.669 in assay [11]; -0.546 in assay [12]. Further, the “glycan array binding signal (z-score)” value is 0.276 in assay [13]; 2.63 in assay [14]; 1.92 in assay [15]; 2.13 in assay [16]; 1.62 in [17]; -0.481 in assay [18].

Values taken from the supplement of paper PMC8728848.
